Common to all, as to experiment: two-hybrid; S. cerevisiae AH109, pDEST-GBKT7 (BD) and pDEST-GADT7 (AD) fusions; growth on SD-LWH with 5 mM 3-amino-1,2,4-triazole and on SD-LWHA, 28°C, 5 days
The target in experiment [1] is T1, EDS1^405-554, fragment of the EP domain, Gal4 BD fusion (A. thaliana) (UniProt Q9SU72).
T1 sequence: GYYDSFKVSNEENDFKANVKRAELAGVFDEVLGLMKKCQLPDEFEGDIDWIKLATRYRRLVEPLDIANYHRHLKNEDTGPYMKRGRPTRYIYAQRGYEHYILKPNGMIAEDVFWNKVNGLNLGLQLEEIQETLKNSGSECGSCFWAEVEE

For experiment [2], the target named is CathB3 mature domain (Lys61-Asn340), Gal4 BD fusion (M. persicae).
In experiment [3] the target is CathB9 mature domain (Glu61-Thr338), Gal4 BD fusion (M. persicae).
In experiment [4] the target is CathB6 mature domain (Arg61-Asn338), Gal4 BD fusion (M. persicae).

These are yes or no findings as the source states them, for the method shown. For some of these results: Binding can be weak; no strength is given. Tags and fused reporters may be left off the sequences shown.

For the molecule “CathB6 mature domain, Gal4 AD fusion (M. persicae) (domain or fragment)”, the binding entry in experiment [1] was “binds”.

B1: PAD4 full length, Gal4 AD fusion (protein, UniProt Q9S745 1-541)
chain: MDDCRFETSELQASVMISTPLFTDSWSSCNTANCNGSIKIHDIAGITYVAIPAVSMIQLGNLVGLPVTGDVLFPGLSSDEPLPMVDAAILKLFLQLKIKEGLELELLGKKLVVITGHSTGGALAAFTALWLLSQSSPPSFRVFCITFGSPLLGNQSLSTSISRSRLAHNFCHVVSIHDLVPRSSNEQFWPFGTYLFCSDKGGVCLDNAGSVRLMFNILNTTATQNTEEHQRYGHYVFTLSHMFLKSRSFLGGSIPDNSYQAGVALAVEALGFSNDDTSGVLVKECIETATRIVRAPILRSAELANELASVLPARLEIQWYKDRCDASEEQLGYYDFFKRYSLKRDFKVNMSRIRLAKFWDTVIKMVETNELPFDFHLGKKWIYASQFYQLLAEPLDIANFYKNRDIKTGGHYLEGNRPKRYEVIDKWQKGVKVPEECVRSRYASTTQDTCFWAKLEQAKEWLDEARKESSDPQRRSLLREKIVPFESYANTLVTKKEVSLDVKAKNSSYSVWEANLKEFKCKMGYENEIEMVVDESDAMET
On to B1, for which the binding result in experiment [2], in experiment [3] and in experiment [4] was “no binding” throughout.

B2: EDS1 full length, Gal4 AD fusion (protein, UniProt Q9SU72 1-623)
chain: MAFEALTGINGDLITRSWSASKQAYLTERYHKEEAGAVVIFAFQPSFSEKDFFDPDNKSSFGEIKLNRVQFPCMRKIGKGDVATVNEAFLKNLEAIIDPRTSFQASVEMAVRSRKQIVFTGHSSGGATAILATVWYLEKYFIRNPNVYLEPRCVTFGAPLVGDSIFSHALGREKWSRFFVNFVSRFDIVPRIMLARKASVEETLPHVLAQLDPRKSSVQESEQRITEFYTRVMRDTSTVANQAVCELTGSAEAFLETLSSFLELSPYRPAGTFVFSTEKRLVAVNNSDAILQMLFYTSQASDEQEWSLIPFRSIRDHHSYEELVQSMGKKLFNHLDGENSIESTLNDLGVSTRGRQYVQAALEEEKKRVENQKKIIQVIEQERFLKKLAWIEDEYKPKCQAHKNGYYDSFKVSNEENDFKANVKRAELAGVFDEVLGLMKKCQLPDEFEGDIDWIKLATRYRRLVEPLDIANYHRHLKNEDTGPYMKRGRPTRYIYAQRGYEHYILKPNGMIAEDVFWNKVNGLNLGLQLEEIQETLKNSGSECGSCFWAEVEELKGKPYEEVEVRVKTLEGMLGEWITDGEVDDKEIFLEGSTFRKWWITLPKNHKSHSPLRDYMMDEITDT
For the molecule B2, the binding result in experiment [2] is “binds”; in experiment [3] it was “no binding”; in experiment [4] it was “binds”.

B3: SAG101 full length, Gal4 AD fusion (protein, UniProt Q4F883 1-537)
chain: MESSSSLKGSALGKLVVTSGLLHSSWSKILEIHNPPYSNHDPGLQVSKKKKDSGLEFQIHREEKFTLVVFSAPPICRSSSSDSTLLHVKDKENPFPFLCSENNPSFSLHTPAFNLFTSASTSLTYLKSELLQTLKSEKPVIITGAALGGSVASLYTLWLLETIEPTLKRPLCITFGSPLIGDASLQQILENSVRNSCFLHVVSAQTRIKMDFFKPFGTFLICFDSGCVCIEDHVAVTELLNGVHDSGLVDYSQVLNRLDQSMLSLADSRLIPEDVIKGIEKRAEMKNLRFDMMFKKLNDMKISMAYIEWYKKKCKEVKIGYYDRFKTQLAFPSKEFDINIKNHHKSELNRFWKSVVEEVERRPQSDASILKRRFLFSGNNYRRMIEPLDIAEYYLEGRKEYRTTGRSHHYVMLEKWFGMESILIEKERCKKRDLSDLLTFDSCFWAEVEDSLIVINQLNTTVGMRDDVREVLTRKLVEFEGYVWEIITKREVSPEIFLEESSFMKWWKEYKKIKGFNSSYLTEFMNTRKYESYGKSQ
B3: the binding result in experiment [2], in experiment [3] and in experiment [4] was “no binding” each time.
